Values from PubChem BioAssay AID1224829 (NIAID, 2016).

Assay: 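Secondary check of hits that alter LPS-induced p65 translocation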 (follow-up of hits)
Cell system: mouse RAW264.7 G9 macrophage reporter cells
Reagents: single siRNA against mouse genes, 100 nM
Time to read-out: 2 days of siRNA knock-down, then 40 min of LPS before fixing
Conditions: LPS (Salmonella minnesota R595) at 10 ng/ml
Measurement: 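High-content images after 40 min LPS exposure; GFP-p65 nucleus to surrounding ring signal ratio, normalised to plate median and non-targeting control wells, expressed as z-score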
Direction: p65 translocation z-score: higher = more nuclear NF-kappaB p65 after LPS
Rule for the call: 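Active means the replicate-mean z-score lies beyond plus or minus 2, in either direction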
Meaning of the calls: active = changed p65 translocation (either direction); inactive = no clear change
The deposit covers about 3,800 reagents; below is a part drawn at random. 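Calls cover raised and lowered translocation; gene median uses one vendor's three siRNAs; qiagen siRNAs acted more weakly than ambion siRNAs.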 A number with no mark means an inactive call. Reagents against one gene are numbered here. Further read-outs or replicates are left out here. No sequences are given here.

{"target": "Tnfaip1", "reagent": 1, "siRNA vendor or control pool": "ambion single siRNA", "p65 translocation z-score, replicate mean": "-3.71 (active)"}
{"target": "Tnfaip1", "reagent": 2, "siRNA vendor or control pool": "ambion single siRNA", "p65 translocation z-score, replicate mean": -0.624}
{"target": "Tnfaip1", "reagent": 3, "siRNA vendor or control pool": "ambion single siRNA", "p65 translocation z-score, replicate mean": "-8.55 (active)"}
{"target": "Tnfaip1", "reagent": 4, "siRNA vendor or control pool": "qiagen single siRNA", "p65 translocation z-score, replicate mean": -1.5}
{"target": "Tnfaip1", "reagent": 5, "siRNA vendor or control pool": "qiagen single siRNA", "p65 translocation z-score, replicate mean": 1.11}
{"target": "Tnfaip1", "reagent": 6, "siRNA vendor or control pool": "qiagen single siRNA", "p65 translocation z-score, replicate mean": 0.5}
{"target": "Slc11a1", "reagent": 1, "siRNA vendor or control pool": "ambion single siRNA", "p65 translocation z-score, replicate mean": -1.92}
{"target": "Slc11a1", "reagent": 2, "siRNA vendor or control pool": "ambion single siRNA", "p65 translocation z-score, replicate mean": -1.91}
{"target": "Slc11a1", "reagent": 3, "siRNA vendor or control pool": "ambion single siRNA", "p65 translocation z-score, replicate mean": "-3.29 (active)"}
{"target": "Slc11a1", "reagent": 4, "siRNA vendor or control pool": "qiagen single siRNA", "p65 translocation z-score, replicate mean": "2.65 (active)"}
{"target": "Slc11a1", "reagent": 5, "siRNA vendor or control pool": "qiagen single siRNA", "p65 translocation z-score, replicate mean": 0.441}
{"target": "Slc11a1", "reagent": 6, "siRNA vendor or control pool": "qiagen single siRNA", "p65 translocation z-score, replicate mean": -0.14}

Continued (3 carried over from the part before).
{"target": "Slc11a1", "reagent": 4, "siRNA vendor or control pool": "qiagen single siRNA", "p65 translocation z-score, replicate mean": "2.65 (active)"}
{"target": "Slc11a1", "reagent": 5, "siRNA vendor or control pool": "qiagen single siRNA", "p65 translocation z-score, replicate mean": 0.441}
{"target": "Slc11a1", "reagent": 6, "siRNA vendor or control pool": "qiagen single siRNA", "p65 translocation z-score, replicate mean": -0.14}
{"target": "Prelid3a", "reagent": 1, "siRNA vendor or control pool": "ambion single siRNA", "p65 translocation z-score, replicate mean": 1.92}
{"target": "Prelid3a", "reagent": 2, "siRNA vendor or control pool": "ambion single siRNA", "p65 translocation z-score, replicate mean": 1.22}
{"target": "Prelid3a", "reagent": 3, "siRNA vendor or control pool": "ambion single siRNA", "p65 translocation z-score, replicate mean": "-3.18 (active)"}
{"target": "Prelid3a", "reagent": 4, "siRNA vendor or control pool": "qiagen single siRNA", "p65 translocation z-score, replicate mean": 0.477}
{"target": "Prelid3a", "reagent": 5, "siRNA vendor or control pool": "qiagen single siRNA", "p65 translocation z-score, replicate mean": 0.803}
{"target": "Prelid3a", "reagent": 6, "siRNA vendor or control pool": "qiagen single siRNA", "p65 translocation z-score, replicate mean": "-2.24 (active)"}
{"target": "Tyw1", "reagent": 1, "siRNA vendor or control pool": "ambion single siRNA", "p65 translocation z-score, replicate mean": -0.249}
{"target": "Tyw1", "reagent": 2, "siRNA vendor or control pool": "ambion single siRNA", "p65 translocation z-score, replicate mean": 0.492}
{"target": "Tyw1", "reagent": 3, "siRNA vendor or control pool": "ambion single siRNA", "p65 translocation z-score, replicate mean": "-3.45 (active)"}
{"target": "Tyw1", "reagent": 4, "siRNA vendor or control pool": "qiagen single siRNA", "p65 translocation z-score, replicate mean": 1.55}
{"target": "Tyw1", "reagent": 5, "siRNA vendor or control pool": "qiagen single siRNA", "p65 translocation z-score, replicate mean": 0.323}
{"target": "Tyw1", "reagent": 6, "siRNA vendor or control pool": "qiagen single siRNA", "p65 translocation z-score, replicate mean": "-3.39 (active)"}
